Source: PubChem BioAssay AID912 (NCATS, 2007).

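A cell-based FRET test of anthrax lethal toxin entry, tracked through the 460 nm emission signal; the cell line is not named here.
Each compound was tested as a concentration series from about 0.0005 to 40 µM.
The number is the fitted AC50 of the 460 nm signal alone; lower values mean a more potent effect. A falling signal goes with compounds filed as inhibitors or cytotoxic, a rising one with activators or fluorescent compounds (inferred from the filed classes).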

Values are in nM.
Common to all entries: measured here: 460 nm channel.
This is a side read-out of the assay, for part of the compounds, not drawn at random.
Potencies fitted to partial, single-point or poorly fitting curves are rough.
The first word of each remark tells which way the curve ran; it can be opposite to the aim of the assay.

SMILES | AC50 (nM) | curve
CN1CCN(CCc2ccc(Cl)c(Cl)c2)CC1 | 31622 | falling, single point
C/C(=C\CNc1ncnc2nc[nH]c12)CO | 12589 | falling, single point
Fc1ccc(C(c2ccc(F)cc2)N2CCN(C/C=C\c3ccccc3)CC2)cc1 | 25118 | falling, partial curve
NS(=O)(=O)O | 3981 | rising, single point
C[C@@]1(CCOCc2ccccc2)NC(=O)NC1=O | 1000 | falling, single point
COc1ccccc1C(=O)N1CCN=C1SC | 7943 | falling, partial curve
O=C1CC(Cc2ccc(Cl)cc2)C(=O)N1c1ccccn1 (stereo not drawn) | 12589 | rising, single point
CCOc1ccc(N(CC(=O)Nc2cccc(Cl)c2)S(=O)(=O)c2c(C)noc2C)cc1 | 5012 | falling, partial curve
COc1ccccc1-c1cc(C(=O)Nc2c(F)cc(F)cc2Br)no1 | 10000 | falling, partial curve
O=C(c1cccc(F)c1)N1CCC2(CC1)CCN(c1cccc(-c3ccccc3)c1)CC2 | 2512 | rising, partial curve
CC(C)CCn1nnnc1C(c1ccc(F)cc1)N1CCN(C(=O)c2ccco2)CC1 (stereo not drawn) | 31622 | rising, single point
CCCCc1c(O)nc(SCC(=O)NCC2CCCO2)[nH]c1=O (stereo not drawn) | 5012 | rising, single point
Cc1cnc(CNc2cc(-c3c(C)noc3C)ncn2)cn1 | 5012 | falling, single point
CC(C)(C)C(=O)NC1CCN(C(=O)N2CCCC2)CC1 | 5012 | falling, single point
Nc1nnc(SCCN2C(=O)c3ccccc3S2(=O)=O)s1 | 316.2 | falling, partial curve
Cc1csc2ncc(C(=O)Nc3ccc4c(c3)OCCO4)c(=O)n12 | 3162 | rising, single point
CCCCn1c(N)c(C(=O)NCCN2CCOCC2)c2nc3ccccc3nc21 | 12589 | rising, partial curve
O=C(NCc1ccco1)c1cnn2c1NC(c1ccc(Br)cc1)CC2C(F)(F)F (stereo not drawn) | 31622 | falling, single point
CCCc1nc2sc3c(SCC(=O)NCc4ccco4)ncnc3c2c2c1CCC2 | 251.2 | falling, full curve
COC(=O)[C@@]1(Cc2ccc(OC)cc2)[C@H]2c3cc(C(=O)N(C)C)n(Cc4ccc(C)c(F)c4F)c3C[C@H]2CN1C(=O)c1ccccc1 | 25118 | falling, single point
N#CCCn1c(=O)c(-c2ccccc2)nc2cnc(Nc3ccccc3)nc21 | 7943 | rising, partial curve
Cc1nn(-c2nc3ccccc3n2Cc2ccccc2)c2c1C(=O)CC(C)(C)C2 | 1000 | falling, full curve, poor fit
CN1CCN(c2nc(-c3ccc(N(C)C)cc3)nc3ccccc23)CC1 | 31622 | falling, single point
COCc1nc2ccccc2n1Cc1ccc(Br)cc1 | 398.1 | rising, single point
CCCCOc1ccc(S(=O)(=O)N2CCCCCC2)cc1 | 19952 | falling, partial curve
COC(=O)[C@@]1(Cc2ccccc2)[C@H]2c3cc(C(=O)N(C)C)n(C)c3C[C@H]2CN1C(=O)c1ccccc1 | 10000 | rising, partial curve
C=C(C)CNCCN | 398.1 | falling, partial curve
COC(=O)c1cc2nc(-c3ccccc3)cc(C)n2n1 | 31622 | rising, single point
O=S(=O)(Nc1ccccc1Cl)c1ccc(F)cc1 | 12589 | falling, single point
CC(C)c1ccc(Nc2nc(NCc3ccco3)nc(N3CCOCC3)n2)cc1 | 19952 | falling, single point
CC(=O)Nc1ccc(NC(=O)c2ccccc2N(C)S(C)(=O)=O)cc1 | 794.3 | falling, full curve, poor fit
CCOC(=O)Cn1c(CN2CCOCC2)nc2c1c(=O)n(C)c(=O)n2C | 12589 | rising, single point
O=C(Nc1ccccc1N1CCOCC1)c1ccc2c(c1)C(=O)N(Cc1ccncc1)C2=O | 15.85 | falling, full curve
Fc1ccc(Nc2nc(-c3ccoc3)nc3ccccc23)cc1 | 7943 | falling, partial curve
COc1ccc(NC(=O)N2CCCC3(CCN(C(=O)c4cc(C(F)(F)F)cc(C(F)(F)F)c4)CC3)C2)cc1 | 12589 | rising, single point
O=C(C1CC(c2ccc(F)cc2)=NO1)N1CCc2ccccc2C1 (stereo not drawn) | 12589 | falling, single point
Cn1c(=O)oc2cc(S(=O)(=O)N3CCN(C(=O)c4ccco4)CC3)ccc21 | 1000 | rising, full curve
COC(=O)[C@H]1C[C@@H]1[C@H](N)c1ccccc1 | 5012 | falling, single point
CCCN(CCC)C(=O)CCS(=O)(=O)c1cccc2nsnc12 | 1585 | falling, full curve
COc1cccc(Nc2ncc3ncc(=O)n(CCc4ccccc4)c3n2)c1 | 12589 | rising, partial curve
Nc1ccccc1S[C@@H](C[N+](=O)[O-])c1ccc2c(c1)OCO2 | 2512 | falling, single point
COc1cc(OC)c(OC)cc1CNC(C)C(O)c1ccccc1 (stereo not drawn) | 3162 | rising, single point
NC(=O)c1sc2nccc(Nc3ccccc3)c2c1N | 5012 | rising, single point
Cc1cccc(NCc2nc(-c3ccccc3)no2)c1 | 15848 | falling, partial curve
Cc1ccc(-c2nnc3ccc(SCC(=O)NCc4ccco4)nn23)cc1 | 3162 | falling, single point
Cc1ccc(-n2cnnn2)c(S(=O)(=O)N2CCOCC2)c1 | 3.981 | falling, full curve, poor fit
CCOC(=O)Cn1c(=O)oc2cc(S(=O)(=O)Nc3ccc(N(CC)CC)cc3C)ccc21 | 7943 | falling, partial curve
CCc1c(C#N)c(N)nc(SCC(=O)OCc2ccccc2)c1C#N | 1995 | rising, partial curve
O=c1c2cc(N3CCOCC3)ccc2[nH]c(=S)n1Cc1ccccn1 | 10 | rising, full curve, poor fit
O=C1c2ccccc2C(=O)N1c1ccc(Cc2ccc(N3C(=O)c4ccccc4C3=O)cc2)cc1 | 794.3 | falling, single point
O=C1C(=O)N(Cc2ccco2)C(c2cccc(Cl)c2)/C1=C(\O)c1ccc2c(c1)OCCO2 (stereo not drawn) | 3.981 | rising, full curve, poor fit
COc1ccc2cc(C(c3nnnn3C(C)(C)C)N3CCc4ccccc4C3)c(=O)[nH]c2c1 (stereo not drawn) | 12589 | rising, partial curve
CNC(=O)[C@H](C)[C@H]1C[C@]1(C)[C@H](NC(=O)OCc1ccccc1)c1ccccc1 | 3981 | falling, single point
COc1cc(-c2c(C#N)c(=O)[nH]c3c2c(C)nn3-c2ccccc2)ccc1O | 7943 | rising, partial curve, poor fit

Some entries from above, unchanged:

SMILES,AC50 (nM),curve
CNC(=O)[C@H](C)[C@H]1C[C@]1(C)[C@H](NC(=O)OCc1ccccc1)c1ccccc1,3981,"falling, single point"
C/C(=C\CNc1ncnc2nc[nH]c12)CO,12589,"falling, single point"
CCOc1ccc(N(CC(=O)Nc2cccc(Cl)c2)S(=O)(=O)c2c(C)noc2C)cc1,5012,"falling, partial curve"
O=C(Nc1ccccc1N1CCOCC1)c1ccc2c(c1)C(=O)N(Cc1ccncc1)C2=O,15.85,"falling, full curve"
CCOC(=O)Cn1c(CN2CCOCC2)nc2c1c(=O)n(C)c(=O)n2C,12589,"rising, single point"